Measurements reported in PubChem BioAssay AID1159578 (Peter MacCallum Cancer Centre, 2015).

Screen: 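Genome-wide hunt for genes controlling movement of lymphatic endothelial cells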 (primary screen)
Cells: human lymphatic endothelial cells
Reagent: siRNA pool against human genes, 40 nM
Time to read-out: 48 h after transfection
Measurement: 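High-content imaging of dye-stained cells in a scratch assay measures filled wound area and nuclei per well; duplicate means given as ratio to mock and robust z-score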
Reading the numbers: migration robust z-score: higher = faster migration into the scratch; migration relative to mock: higher = more scratch area covered than mock; nuclei per well: higher = more cells in the well
Call rule: 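Pools averaging fewer than 3300 nuclei are never called; remaining pools count as changed when migration robust z lies outside -2 to 2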
Calls: active = migration changed; inactive = no migration change, or too few cells
In all, the deposit lists about 18,000 reagents; below is an unselected part. About 1,030 of all reagents (5.7%) were called active. 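Inactive calls also include pools with fewer than 3300 nuclei, whose migration was not assessed.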 The raw values are shown without normalisation. A number with no mark means an inactive call.

| gene | PubChem SID | migration robust z-score | migration class with cell-count check | migration relative to mock | nuclei per well, duplicate mean |
| --- | --- | --- | --- | --- | --- |
| MAPRE2 | SID255355499 | -0.36 | migration z between -2 and 2; enough cells | 0.79 | 5372 |
| ACTRT2 | SID255363113 | 0.26 | migration z between -2 and 2; enough cells | 0.96 | 4986 |
| FRG1 | SID255349752 | 0.36 | migration z between -2 and 2; enough cells | 0.98 | 5541 |
| SKP2 | SID255352434 | -1.35 | migration z between -2 and 2; enough cells | 0.55 | 5219 |
| GNPAT | SID255353554 | -0.06 | migration z between -2 and 2; enough cells | 0.87 | 6028 |
| SULT1A3 | SID255352692 | 0.57 | migration z between -2 and 2; enough cells | 1.04 | 7705 |
| NISCH | SID255355669 | 0.49 | migration z between -2 and 2; enough cells | 0.9 | 5624 |
| SLC49A3 | SID255361229 | 0.99 | migration z between -2 and 2; enough cells | 1.15 | 6062 |
| ERG | SID255349553 | 1.97 | migration z between -2 and 2; enough cells | 1.19 | 6943 |
| ACP7 | SID255365670 | -0.39 | migration z between -2 and 2; enough cells | 0.73 | 5611 |
| PCSK5 | SID255351453 | 0.02 | migration z between -2 and 2; enough cells | 0.81 | 5908 |
| KCNE4 | SID255356407 | 0.49 | migration z between -2 and 2; enough cells | 0.9 | 4735 |
| CUL9 | SID255355999 | 0.32 | migration z between -2 and 2; enough cells | 0.86 | 4316 |
| LOC652436 (retired record) | SID318171907 | -0.62 | migration z between -2 and 2; enough cells | 0.68 | 4849 |
| NLRP8 | SID255362690 | -0.55 | migration z between -2 and 2; enough cells | 0.7 | 6564 |
| CD1C | SID255348747 | -0.28 | migration z between -2 and 2; enough cells | 0.81 | 5964 |
| NBL1 | SID255351146 | 0.27 | migration z between -2 and 2; enough cells | 0.96 | 5370 |
| ZNF543 | SID255362666 | -0.72 | migration z between -2 and 2; enough cells | 0.7 | 5558 |
| HSP90B1 | SID255352958 | -1.01 | migration z between -2 and 2; enough cells | 0.61 | 5440 |
| PRKCSH | SID255351806 | -0.5 | migration z between -2 and 2; enough cells | 0.71 | 4140 |
| PDCD5 | SID255354069 | -0.13 | migration z between -2 and 2; enough cells | 0.85 | 5800 |
| LRRC39 | SID255362757 | 0.3 | migration z between -2 and 2; enough cells | 0.97 | 5847 |
| NFE4 | SID255359619 | 0.88 | migration z between -2 and 2; enough cells | 1.12 | 6008 |
| RIPPLY2 | SID255362980 | -1.25 | migration z between -2 and 2; enough cells | 0.56 | 5001 |
| GRIA3 | SID255350031 | 0.36 | migration z between -2 and 2; enough cells | 0.88 | 6340 |
| HGD | SID255350177 | 0.16 | migration z between -2 and 2; enough cells | 0.84 | 4802 |
| ASCC1 | SID255357403 | 1.73 | migration z between -2 and 2; enough cells | 1.34 | 5718 |
| CSTB | SID255349147 | 0.18 | migration z between -2 and 2; enough cells | 0.84 | 5636 |
| UBQLN1 | SID255357258 | -0.98 | migration z between -2 and 2; enough cells | 0.63 | 4718 |
| RGS14 | SID255355246 | 0.02 | migration z between -2 and 2; enough cells | 0.89 | 5708 |
| PRELID2 | SID255363576 | -0.34 | migration z between -2 and 2; enough cells | 0.8 | 5974 |
| GPR15 | SID255349989 | 0.8 | migration z between -2 and 2; enough cells | 0.96 | 5718 |
| ZMIZ1 | SID255359321 | 0.52 | migration z between -2 and 2; enough cells | 1.02 | 5954 |
| NEFM | SID255351197 | 0.2 | migration z between -2 and 2; enough cells | 0.94 | 5880 |
| ZBTB1 | SID255355850 | 1.16 | migration z between -2 and 2; enough cells | 1.18 | 5076 |
| HHIP | SID255359915 | -0.08 | migration z between -2 and 2; enough cells | 0.86 | 6055 |
| KRABD3 | SID255361426 | -0.12 | migration z between -2 and 2; enough cells | 0.86 | 6352 |
| LCAT | SID255350731 | -0.34 | migration z between -2 and 2; enough cells | 0.74 | 6038 |
| DHRS1 | SID255362331 | -1.4 | under 3300 nuclei; migration not judged | 0.54 | 2867 |
| OR10J1 | SID255356784 | 0.4 | migration z between -2 and 2; enough cells | 0.99 | 5734 |
| SREBF1 | SID255352622 | -0.84 | migration z between -2 and 2; enough cells | 0.66 | 5672 |
| TSPEAR | SID255357967 | 0.16 | migration z between -2 and 2; enough cells | 0.92 | 5570 |
| MMD2 | SID255364327 | -0.2 | migration z between -2 and 2; enough cells | 0.84 | 6864 |
| RBMX2 | SID255357823 | 1.01 | migration z between -2 and 2; enough cells | 1.15 | 4018 |
| TGFBRAP1 | SID255354242 | 1.32 | migration z between -2 and 2; enough cells | 1.06 | 5968 |
| MGST2 | SID255350961 | -0.39 | migration z between -2 and 2; enough cells | 0.78 | 4951 |
| SFTA2 | SID255365558 | 1.06 | migration z between -2 and 2; enough cells | 1.16 | 6459 |
| PRR13 | SID255358017 | 0.37 | migration z between -2 and 2; enough cells | 0.98 | 6442 |
| NRK | SID255364130 | 0 | migration z between -2 and 2; enough cells | 0.8 | 4757 |
| TMEM130 | SID255364360 | -1.43 | migration z between -2 and 2; enough cells | 0.52 | 6096 |
| RCBTB2 | SID255348891 | -0.14 | migration z between -2 and 2; enough cells | 0.85 | 6084 |
| CHL1 | SID255355327 | 0.7 | migration z between -2 and 2; enough cells | 1.07 | 6879 |
| BBS2 | SID255348510 | 0.9 | migration z between -2 and 2; enough cells | 1.12 | 6088 |
| FAM107A | SID255355652 | -1.15 | under 3300 nuclei; migration not judged | 0.59 | 3088 |
| ST8SIA3 | SID255357430 | -0.83 | migration z between -2 and 2; enough cells | 0.64 | 6463 |
| UBE2D2 | SID255353030 | -0.02 | migration z between -2 and 2; enough cells | 0.8 | 6708 |
| HSP90AB1 | SID255350343 | -0.36 | migration z between -2 and 2; enough cells | 0.74 | 5323 |

6 of these entries, reformatted.
MMD2 [SID255364327]
- migration robust z-score: -0.2
- migration class with cell-count check: migration z between -2 and 2; enough cells
- migration relative to mock: 0.84
- nuclei per well, duplicate mean: 6864

RBMX2 [SID255357823]
- migration robust z-score: 1.01
- migration class with cell-count check: migration z between -2 and 2; enough cells
- migration relative to mock: 1.15
- nuclei per well, duplicate mean: 4018

TGFBRAP1 [SID255354242]
- migration robust z-score: 1.32
- migration class with cell-count check: migration z between -2 and 2; enough cells
- migration relative to mock: 1.06
- nuclei per well, duplicate mean: 5968

MGST2 [SID255350961]
- migration robust z-score: -0.39
- migration class with cell-count check: migration z between -2 and 2; enough cells
- migration relative to mock: 0.78
- nuclei per well, duplicate mean: 4951

SFTA2 [SID255365558]
- migration robust z-score: 1.06
- migration class with cell-count check: migration z between -2 and 2; enough cells
- migration relative to mock: 1.16
- nuclei per well, duplicate mean: 6459

PRR13 [SID255358017]
- migration robust z-score: 0.37
- migration class with cell-count check: migration z between -2 and 2; enough cells
- migration relative to mock: 0.98
- nuclei per well, duplicate mean: 6442
